Article doi:10.1101/2025.11.22.689956
Results are given in words; binding and its absence hold for the method and conditions named. Sequences can lack the tags named with a protein.

By UniProt entry, the sequences of proteins in these tests, tags left out.
UniProt Q0INY7: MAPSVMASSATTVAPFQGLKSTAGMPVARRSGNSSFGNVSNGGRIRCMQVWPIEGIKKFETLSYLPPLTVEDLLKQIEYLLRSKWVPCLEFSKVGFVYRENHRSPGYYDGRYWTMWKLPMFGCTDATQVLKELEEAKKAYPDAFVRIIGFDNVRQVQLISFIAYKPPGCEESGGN

Molecular target: precursor RbcS (RbcS3), yeast two-hybrid fusion (rice) (UniProt Q0INY7)
Experiment: two-hybrid

binding: no binding
B1: MPK3 fused to the GAL4 activation domain (enzyme, UniProt Q10N20 1-369)
chain: MDGAPVAEFRPTMTHGGRYLLYDIFGNKFEVTNKYQPPIMPIGRGAYGIVCSVMNFETREMVAIKKIANAFNNDMDAKRTLREIKLLRHLDHENIIGIRDVIPPPIPQAFNDVYIATELMDTDLHHIIRSNQELSEEHCQYFLYQILRGLKYIHSANVIHRDLKPSNLLLNANCDLKICDFGLARPSSESDMMTEYVVTRWYRAPELLLNSTDYSAAIDVWSVGCIFMELINRQPLFPGRDHMHQMRLITEVIGTPTDDELGFIRNEDARKYMRHLPQYPRRTFASMFPRVQPAALDLIERMLTFNPLQRITVEEALDHPYLERLHDIADEPICLEPFSFDFEQKALNEDQMKQLIFNEAIEMNPNIRY
